5 molecules from article doi:10.1101/2023.09.17.558147 can be followed below.

Amino acid sequences for entries named in this document (tags omitted). A change or cut given only in a name is not applied to a line headed by its entry.
UniProt P51979: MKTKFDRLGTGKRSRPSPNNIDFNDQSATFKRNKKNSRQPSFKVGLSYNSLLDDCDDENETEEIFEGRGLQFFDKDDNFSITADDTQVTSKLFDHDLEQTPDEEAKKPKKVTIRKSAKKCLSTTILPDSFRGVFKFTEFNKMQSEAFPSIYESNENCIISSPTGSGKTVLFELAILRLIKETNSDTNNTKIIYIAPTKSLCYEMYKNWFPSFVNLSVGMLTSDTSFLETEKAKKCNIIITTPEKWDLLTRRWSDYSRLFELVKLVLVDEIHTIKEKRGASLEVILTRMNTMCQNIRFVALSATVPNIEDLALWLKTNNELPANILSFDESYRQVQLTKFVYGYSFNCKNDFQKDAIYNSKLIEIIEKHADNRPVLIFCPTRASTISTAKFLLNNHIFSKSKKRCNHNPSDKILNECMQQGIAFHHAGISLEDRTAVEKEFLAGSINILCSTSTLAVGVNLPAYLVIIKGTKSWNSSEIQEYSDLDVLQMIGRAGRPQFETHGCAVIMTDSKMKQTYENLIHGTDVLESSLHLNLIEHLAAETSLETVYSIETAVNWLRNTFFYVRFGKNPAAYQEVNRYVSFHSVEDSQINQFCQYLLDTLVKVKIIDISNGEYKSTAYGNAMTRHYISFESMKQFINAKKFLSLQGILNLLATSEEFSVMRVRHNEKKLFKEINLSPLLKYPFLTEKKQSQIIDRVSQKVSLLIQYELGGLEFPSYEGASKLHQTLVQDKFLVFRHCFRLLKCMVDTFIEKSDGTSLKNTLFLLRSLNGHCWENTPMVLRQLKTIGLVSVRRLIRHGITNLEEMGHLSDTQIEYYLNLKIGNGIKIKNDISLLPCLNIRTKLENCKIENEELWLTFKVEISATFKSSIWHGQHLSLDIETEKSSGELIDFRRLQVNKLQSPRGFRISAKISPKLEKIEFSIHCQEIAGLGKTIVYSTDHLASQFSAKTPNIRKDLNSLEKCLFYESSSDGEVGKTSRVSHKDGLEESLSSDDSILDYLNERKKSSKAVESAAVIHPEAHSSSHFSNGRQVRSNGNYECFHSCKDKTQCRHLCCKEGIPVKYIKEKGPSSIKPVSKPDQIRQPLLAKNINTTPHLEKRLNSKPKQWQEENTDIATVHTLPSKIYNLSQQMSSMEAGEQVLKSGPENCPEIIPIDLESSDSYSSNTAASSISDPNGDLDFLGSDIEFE
UniProt Q12306: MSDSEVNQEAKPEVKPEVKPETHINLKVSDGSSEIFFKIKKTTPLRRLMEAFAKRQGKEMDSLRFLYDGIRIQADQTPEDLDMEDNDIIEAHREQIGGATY

Like-named read-outs stand apart in the source and are kept apart here. No constants are given. Whether binding was seen depends on the method and setting. Binding seen in cells or lysates may run through a third protein. Here binding means that the protein was enriched with, or labelled near, the bait; the list need not be complete. For some of these results: No binding means not detected with the bait.

Assay in all cases: proximity labelling
Assay [1] deals with T1, Msh4-TurboID (S. cerevisiae) (UniProt P40965).
T1 sequence: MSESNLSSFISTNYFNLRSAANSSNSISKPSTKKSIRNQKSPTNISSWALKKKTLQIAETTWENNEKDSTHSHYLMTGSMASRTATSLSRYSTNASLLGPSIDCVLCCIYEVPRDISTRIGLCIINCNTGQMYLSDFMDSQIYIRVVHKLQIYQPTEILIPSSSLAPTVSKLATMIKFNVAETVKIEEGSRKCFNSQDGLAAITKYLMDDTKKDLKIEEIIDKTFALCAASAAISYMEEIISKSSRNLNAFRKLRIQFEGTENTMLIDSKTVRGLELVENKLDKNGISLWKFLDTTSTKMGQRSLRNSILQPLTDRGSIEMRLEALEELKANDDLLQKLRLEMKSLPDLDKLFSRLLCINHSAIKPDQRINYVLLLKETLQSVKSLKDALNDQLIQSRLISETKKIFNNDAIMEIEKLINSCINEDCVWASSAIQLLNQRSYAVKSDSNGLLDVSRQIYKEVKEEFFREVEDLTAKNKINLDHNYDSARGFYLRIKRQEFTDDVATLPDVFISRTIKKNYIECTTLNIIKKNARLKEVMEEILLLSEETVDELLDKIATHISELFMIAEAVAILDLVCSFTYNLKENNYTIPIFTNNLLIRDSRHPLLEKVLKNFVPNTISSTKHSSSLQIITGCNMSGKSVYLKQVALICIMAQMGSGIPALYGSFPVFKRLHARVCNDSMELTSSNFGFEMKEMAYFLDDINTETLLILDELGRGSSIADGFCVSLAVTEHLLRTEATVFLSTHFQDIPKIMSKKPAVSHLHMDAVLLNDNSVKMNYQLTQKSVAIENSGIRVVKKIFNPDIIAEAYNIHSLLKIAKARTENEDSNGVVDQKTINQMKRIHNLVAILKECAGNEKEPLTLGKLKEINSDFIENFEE

For assay [2], the target named is T2, Msh5-TurboID (S. cerevisiae) (UniProt Q12175).
T2 sequence: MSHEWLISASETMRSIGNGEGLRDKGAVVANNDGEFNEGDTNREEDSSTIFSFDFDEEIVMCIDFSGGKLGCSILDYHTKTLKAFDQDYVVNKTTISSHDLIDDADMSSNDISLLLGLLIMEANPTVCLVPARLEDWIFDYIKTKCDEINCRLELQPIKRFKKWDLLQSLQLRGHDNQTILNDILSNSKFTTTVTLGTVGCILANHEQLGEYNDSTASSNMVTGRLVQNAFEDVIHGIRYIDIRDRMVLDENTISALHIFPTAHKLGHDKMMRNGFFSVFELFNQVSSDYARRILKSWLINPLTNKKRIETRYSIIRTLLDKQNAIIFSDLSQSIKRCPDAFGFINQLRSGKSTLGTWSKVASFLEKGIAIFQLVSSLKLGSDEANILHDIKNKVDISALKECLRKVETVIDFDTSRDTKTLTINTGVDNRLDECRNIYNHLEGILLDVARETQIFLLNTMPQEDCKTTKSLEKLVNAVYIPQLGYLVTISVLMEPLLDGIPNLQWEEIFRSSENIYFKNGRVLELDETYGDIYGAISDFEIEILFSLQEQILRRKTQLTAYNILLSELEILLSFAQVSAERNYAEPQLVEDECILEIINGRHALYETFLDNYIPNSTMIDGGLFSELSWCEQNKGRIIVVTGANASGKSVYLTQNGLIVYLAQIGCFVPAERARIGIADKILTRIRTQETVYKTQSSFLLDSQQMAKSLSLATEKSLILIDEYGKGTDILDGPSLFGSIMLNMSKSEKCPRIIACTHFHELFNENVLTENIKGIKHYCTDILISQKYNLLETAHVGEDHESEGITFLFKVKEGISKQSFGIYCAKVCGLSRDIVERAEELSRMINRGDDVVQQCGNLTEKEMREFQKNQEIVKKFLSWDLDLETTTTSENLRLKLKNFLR

The target in assay [3] is T3, Ecm11-TurboID (S. cerevisiae) (UniProt Q04110).
T3 sequence: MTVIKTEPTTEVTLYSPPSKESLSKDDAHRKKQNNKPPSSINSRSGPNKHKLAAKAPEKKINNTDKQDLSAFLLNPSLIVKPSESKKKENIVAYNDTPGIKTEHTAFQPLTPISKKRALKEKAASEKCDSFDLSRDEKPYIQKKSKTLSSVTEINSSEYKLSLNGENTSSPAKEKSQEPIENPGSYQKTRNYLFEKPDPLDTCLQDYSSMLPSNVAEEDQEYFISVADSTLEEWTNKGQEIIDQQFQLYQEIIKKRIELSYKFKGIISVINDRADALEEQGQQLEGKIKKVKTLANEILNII

Assay [4] deals with T4, Ecm11-TurboID (S. cerevisiae), Q04110.
T4 chain: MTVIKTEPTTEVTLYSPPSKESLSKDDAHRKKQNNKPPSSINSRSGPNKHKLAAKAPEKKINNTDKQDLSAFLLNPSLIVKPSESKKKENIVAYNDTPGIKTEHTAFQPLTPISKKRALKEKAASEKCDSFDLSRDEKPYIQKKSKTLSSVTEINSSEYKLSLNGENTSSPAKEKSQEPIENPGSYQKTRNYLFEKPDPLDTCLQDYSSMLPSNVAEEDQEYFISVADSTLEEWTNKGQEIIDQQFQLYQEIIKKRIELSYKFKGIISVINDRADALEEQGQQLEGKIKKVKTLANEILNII
The conditions noted are these: remark: other sources report otherwise.

Assay [5] concerns the target T3, Ecm11-TurboID (S. cerevisiae). This is another data set of the same source.
Assay [6] has as its target T5, Mlh3-TurboID (S. cerevisiae) (UniProt Q12083).
T5 sequence: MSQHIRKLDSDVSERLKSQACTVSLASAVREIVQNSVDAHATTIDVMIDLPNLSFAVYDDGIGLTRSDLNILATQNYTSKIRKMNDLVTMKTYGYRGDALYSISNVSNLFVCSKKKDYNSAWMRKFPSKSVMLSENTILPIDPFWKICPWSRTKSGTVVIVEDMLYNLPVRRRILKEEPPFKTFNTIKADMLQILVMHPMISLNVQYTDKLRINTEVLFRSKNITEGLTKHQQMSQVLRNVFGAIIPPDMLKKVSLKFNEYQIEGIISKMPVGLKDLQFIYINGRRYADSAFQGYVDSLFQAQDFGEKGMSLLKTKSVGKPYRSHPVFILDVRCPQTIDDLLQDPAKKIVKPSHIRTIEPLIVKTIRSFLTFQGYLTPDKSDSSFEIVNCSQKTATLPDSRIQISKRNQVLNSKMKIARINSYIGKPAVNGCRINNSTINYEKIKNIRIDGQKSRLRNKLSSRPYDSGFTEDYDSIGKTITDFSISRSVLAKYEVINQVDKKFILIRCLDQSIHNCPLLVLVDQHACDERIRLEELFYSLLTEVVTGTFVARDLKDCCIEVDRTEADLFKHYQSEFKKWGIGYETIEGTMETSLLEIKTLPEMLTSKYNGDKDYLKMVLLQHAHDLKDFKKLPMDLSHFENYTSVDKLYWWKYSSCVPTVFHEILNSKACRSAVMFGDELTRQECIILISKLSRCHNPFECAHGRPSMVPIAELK

Assay [7] deals with T2, Msh5-TurboID (S. cerevisiae). This is another data set of the same source.
Assay [8] has as its target T6, TurboID-Gmc2 (S. cerevisiae) (UniProt Q06201).
T6 sequence: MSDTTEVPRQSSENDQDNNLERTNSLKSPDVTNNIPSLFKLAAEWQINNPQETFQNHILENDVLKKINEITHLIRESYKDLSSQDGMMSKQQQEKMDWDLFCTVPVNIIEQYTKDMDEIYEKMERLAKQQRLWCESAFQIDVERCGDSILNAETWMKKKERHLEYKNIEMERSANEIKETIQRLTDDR

Assay [9] concerns the target Mer3-TurboID (S. cerevisiae) (UniProt P51979).
Assay [10] addresses T7, Zip3iTurboID (S. cerevisiae) (UniProt Q06032).
T7 sequence: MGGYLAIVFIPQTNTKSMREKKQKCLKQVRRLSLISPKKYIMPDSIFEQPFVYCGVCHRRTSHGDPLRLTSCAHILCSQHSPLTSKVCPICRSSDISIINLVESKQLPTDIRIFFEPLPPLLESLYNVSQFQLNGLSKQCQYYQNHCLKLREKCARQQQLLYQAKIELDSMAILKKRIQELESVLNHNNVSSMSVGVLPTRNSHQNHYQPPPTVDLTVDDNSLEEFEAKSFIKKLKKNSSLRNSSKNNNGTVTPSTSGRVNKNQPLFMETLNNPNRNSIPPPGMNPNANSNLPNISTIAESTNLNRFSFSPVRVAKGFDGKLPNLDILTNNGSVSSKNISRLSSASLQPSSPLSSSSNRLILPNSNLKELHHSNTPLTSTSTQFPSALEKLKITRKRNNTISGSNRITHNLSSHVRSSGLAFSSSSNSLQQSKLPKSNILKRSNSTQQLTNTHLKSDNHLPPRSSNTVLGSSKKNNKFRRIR

As to “Mer3 helicase (from UniProt P51979 1-1187)”, the binding entry in [1] and in [2] was “binds” in each case.
“SUMO protein (encoded by the SMT3 gene) (from UniProt Q12306)”: the binding entry in [3] is “binds”.

B1: Zip1, P31111 1-875 (protein)
chain: MSNFFRDSSMGFKPRPNIFAKLRVRDVDSDSSANTVVENSSNCLDVGSSIEGDDTFKKPHKTSTEQELITSMSLSQRNHGYSDDMEIGSPKKTTSTDQYNRILKNDVAAIENDTDEDFEITEVREVSEGVAKETKESHGDPNDSETTLKDSKMHEYTMTNGKAPLHTSINNSSTSSNDVLLEAFTNTQRICSNLKQELQKQQQDNAKLKVRLQSYASNSDKINEKVGKYKSCLETLQERIATLTSHKNNQETKLKDLRQNHQLYQRRISGFKTSIENLNKTINDLGKNKKEADAELMKKGKEIEYLKRELDDCSGQLSEEKIKNSSLIQEMGKNREEMIKSIENFFSEDKAHHLLQFNKFEERVHDLFEKKLQKHFDVAKDTLNVGLRNTTVELSSNTETMLKQQYEDIKENLEQKMSSSKDEMAKTINELSVTQKGLIMGVQEELLTSSGNIQTALVSEMNNTRQELLDDASQTAKNYASLENLVKAYKAEIVQSNEYEERIKHLESERSTLSSQKNQIISSLGTKEAQYEDLVKKLEAKNIEISQISGKEQSLTEKNENLSNELKKVQDQLEKLNNLNITTKSNYENKISSQNEIVKALVSENDTLKQRIQQLVEIKENEQKDHTTKLEAFQKNNEQLQKLNVEVVQLKAHELELEEQNRHLKNCLEKKETGVEESLSDVKTLKQQVIVLKSEKQDITAEKLELQDNLESLEEVTKNLQQKVQSQKRELEQKIKELEEIKNHKRNEPSKKGTQNFTKPSDSPKKNATTSNLFPNNSAAIHSPMKKCPKVDHISKSRINSSKETSKFNDEFDLSSSSNDDLELTNPSPIQIKPVRGKIKKGSNCMKPPISSRKKLLLVEDEDQSLKISKKRRRK
For the molecule B1, in assay [4], the binding result is “binds”.

B2: Ecm11 (protein, UniProt Q04110 1-302)
chain: MTVIKTEPTTEVTLYSPPSKESLSKDDAHRKKQNNKPPSSINSRSGPNKHKLAAKAPEKKINNTDKQDLSAFLLNPSLIVKPSESKKKENIVAYNDTPGIKTEHTAFQPLTPISKKRALKEKAASEKCDSFDLSRDEKPYIQKKSKTLSSVTEINSSEYKLSLNGENTSSPAKEKSQEPIENPGSYQKTRNYLFEKPDPLDTCLQDYSSMLPSNVAEEDQEYFISVADSTLEEWTNKGQEIIDQQFQLYQEIIKKRIELSYKFKGIISVINDRADALEEQGQQLEGKIKKVKTLANEILNII
modifications: biotinylated by TurboID (sites not given)
Turning to B2, the binding result in assay [5] is listed as “binds”; in [6], “no binding”; in assay [7], “binds”; in assay [8] it was “binds”; in assay [9] it was “binds”.

B3: Zip3 (protein, UniProt Q06032 1-482)
chain: MGGYLAIVFIPQTNTKSMREKKQKCLKQVRRLSLISPKKYIMPDSIFEQPFVYCGVCHRRTSHGDPLRLTSCAHILCSQHSPLTSKVCPICRSSDISIINLVESKQLPTDIRIFFEPLPPLLESLYNVSQFQLNGLSKQCQYYQNHCLKLREKCARQQQLLYQAKIELDSMAILKKRIQELESVLNHNNVSSMSVGVLPTRNSHQNHYQPPPTVDLTVDDNSLEEFEAKSFIKKLKKNSSLRNSSKNNNGTVTPSTSGRVNKNQPLFMETLNNPNRNSIPPPGMNPNANSNLPNISTIAESTNLNRFSFSPVRVAKGFDGKLPNLDILTNNGSVSSKNISRLSSASLQPSSPLSSSSNRLILPNSNLKELHHSNTPLTSTSTQFPSALEKLKITRKRNNTISGSNRITHNLSSHVRSSGLAFSSSSNSLQQSKLPKSNILKRSNSTQQLTNTHLKSDNHLPPRSSNTVLGSSKKNNKFRRIR
For the molecule B3, the binding entry in assay [6] is recorded as “no binding”; in assay [8] it was “no binding”; in assay [10], “binds”; in assay [9], “binds”.
